Assay results as given in patent US20250367237A1 (TENEOBIO, published 2025).
No constants are given. Whether binding was seen depends on the method and setting. Some results given as binding are weak or reduced against the parent protein; the word gives no strength.

Amino acid sequences for entries named in this document (tags omitted). A change or cut given only in a name is not applied to a line headed by its entry.
UniProt P10721: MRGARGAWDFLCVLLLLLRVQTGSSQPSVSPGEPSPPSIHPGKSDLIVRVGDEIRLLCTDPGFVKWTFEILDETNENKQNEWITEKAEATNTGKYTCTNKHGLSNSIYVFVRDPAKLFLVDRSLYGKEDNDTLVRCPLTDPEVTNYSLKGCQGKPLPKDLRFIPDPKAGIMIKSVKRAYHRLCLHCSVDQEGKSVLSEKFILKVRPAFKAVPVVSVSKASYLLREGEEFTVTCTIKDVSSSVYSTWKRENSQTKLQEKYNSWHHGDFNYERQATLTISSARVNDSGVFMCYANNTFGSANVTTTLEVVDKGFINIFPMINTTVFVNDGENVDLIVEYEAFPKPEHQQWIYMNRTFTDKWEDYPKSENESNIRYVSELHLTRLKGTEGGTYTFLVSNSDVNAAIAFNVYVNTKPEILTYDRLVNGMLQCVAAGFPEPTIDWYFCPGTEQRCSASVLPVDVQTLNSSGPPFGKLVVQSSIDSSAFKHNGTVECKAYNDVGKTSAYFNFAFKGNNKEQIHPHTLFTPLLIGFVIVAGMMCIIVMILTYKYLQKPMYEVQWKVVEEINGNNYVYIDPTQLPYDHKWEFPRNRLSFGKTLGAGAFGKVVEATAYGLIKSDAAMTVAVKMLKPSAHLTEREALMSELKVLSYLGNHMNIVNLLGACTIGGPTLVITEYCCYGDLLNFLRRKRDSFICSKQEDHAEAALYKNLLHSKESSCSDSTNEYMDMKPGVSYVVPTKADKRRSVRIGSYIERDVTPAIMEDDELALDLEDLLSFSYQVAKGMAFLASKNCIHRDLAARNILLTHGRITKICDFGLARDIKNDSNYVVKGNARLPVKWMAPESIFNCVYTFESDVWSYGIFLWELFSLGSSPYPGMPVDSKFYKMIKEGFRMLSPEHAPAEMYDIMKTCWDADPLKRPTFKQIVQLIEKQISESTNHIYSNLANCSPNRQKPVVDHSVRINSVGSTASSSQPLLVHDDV

What follows are binders tested against T1, human c-Kit expressed on NOMO-1 cells (human, UniProt P10721 26-976) (assay: flow cytometry on NOMO-1 cells expressing human c-Kit, PE-conjugated secondary antibody, PE MFI as fold over background).
T1 construct: Endogenous c-Kit of the NOMO-1 AML cell line

binding	Binder
binds	anti-c-Kit single domain antibody Clone ID # 408198 (VHH, also called F18 family) VHH: QLQLQESGPGLVKPSETLSLTCTVSGGSISSSSYYWGWIRQPPGKGLEWIGSIDYNGGTYNNPSLKSRVTISVDTSKNQFSLKLSYVTAADTAVYYCARQNPRRYASGASDYRGQGTLVTVSS
binds	anti-c-Kit single domain antibody Clone ID # 408366 (VHH, also called F06 family) VHH: EVQLLESGGGLVQPGGSLRLSCAASGLTISTYAMSWVRQAPGKGLEWVSAISTGGSSTYYADSVKGRFTISRDNSKNTLYLQMNSLRAEDTAVYYCATGYDSSGHYYGGFDYRGQGTLVTVSS
binds	anti-c-Kit single domain antibody Clone ID # 407921 (VHH, also called F06 family) VHH: EVQLLESGGGLVQPGGSLRLSCAASGFTFDSYAMSWVRQAPGKGLEWVSAISVRGGSTYYADSVKGRFTISRDNSKNTLYLQMNSLRAEDTAVYSCATGYDPSGHYYGGFDYRGQGTLVTVSS
